## Primary screen of a compound library

Mtb glucose medium: 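Phenotypic screen: M. tuberculosis growth, glucose 7H9 medium, 3 days; the read-out is not stated. Compounds at 50 µM. Higher reads as more growth inhibition (inferred: compounds with an IC50 in retests scored well above the rest). Size under these conditions: about 69,000 compounds, about 760 of them at 50% or above in at least one test.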
Mtb cholesterol medium: 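Phenotypic screen: M. tuberculosis growth, cholesterol and DPPC medium, 4 days; the read-out is not stated. Compounds at 50 µM. Higher reads as more growth inhibition (inferred: compounds with an IC50 in retests scored well above the rest). Size under these conditions: about 69,000 compounds, about 370 of them at 50% or above in at least one test.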

Values are the deposited “Percent Effect”, in %.
The controls that fix the scale are not given in the record; negative values are as filed.
This is an unselected part of the compounds tested.
Two or more numbers in one place are separate tests of the same structure; such repeats can differ widely.

| structure | Mtb glucose medium | Mtb cholesterol medium |
|---|---|---|
| `Cc1cnc2c(S(=O)(=O)NC3CCS(=O)(=O)C3)cccc2c1` (centres unmarked) | 21.71 | 14.79 |
| `O=C(O)C(F)(F)F.O=C(O)C(F)(F)F.[H][C@@]12CCN(Cc3ccccc3)C[C@]1([H])[C@@H](CNc1ncccn1)OC2` | 7.507 | 2.292 |
| `CC(C)[C@H](NC(=O)Cn1nc2c(cc1=O)CCCC2)C(=O)O` | 8.388 | -9.998 |
| `Cc1nn(C)c(Cl)c1CN1CCN(c2nccs2)C(C)C1` (centres unmarked) | 29.79 | 13.56 |
| `COc1ccccc1C(C)CNC(=O)c1[nH]ncc1Br` (centres unmarked) | 7.758 & 39.97 | 8.221 |
| `Cc1cc(N2CCCN(C(=O)Cc3ccc(O)c(Cl)c3)CC2)ccn1` | 15.6 | -2.62 |
| `COCCOc1cccc(CNC(=O)CN2CCN(C)CC2C)c1` (centres unmarked) | -16.67 | -24.41 |
| `NC(=O)CN1CCCN(C(=O)COc2cccc(F)c2)CC1` | 12.51 | 12.84 |
| `COCC(=O)N1CCCC(COc2ccccc2C)C1` (centres unmarked) | 7.126 & 2.468 | -3.075 |
| `CN1CCN(S(C)(=O)=O)c2cc(F)ccc21` | 13.29 | 7.257 |
| `CC(C)c1nc(CN2CCCC(O)C2)cs1` (centres unmarked) | -0.7109 | -3.666 |
| `CN(Cc1ccc(Cl)s1)C1CCCN(c2cccnn2)C1` (centres unmarked) | 31 & 26.3 | 5.282 |
| `[H][C@@]12CN(Cc3cccc(F)c3)C[C@]1([H])N(CCCN1CCOCC1)C(=O)O2` | -17.26 | -11.5 |
| `O=C(Nc1ccc2c(c1)OCO2)N1CCN(CCn2cccn2)CC1` | 23 | -9.875 |
| `Cc1cc(=O)c2ccccc2n1CC1CCN(C(C)C)C1` (centres unmarked) | 12.88 | 6.488 |
| `COCCOCCNC(=O)c1cccc(Cn2nc(C)cc2C)c1` | -54.16 | -10.45 |
| `CC(C)NC(=O)N1CCCC2(CCN(c3ccsc3)C2=O)C1` (centres unmarked) | 6.346 | -3.169 |
| `COc1cc(N2CCC3(CCN(C(=O)c4cccnc4)CC3)C2)ncn1.O=C(O)C(F)(F)F` | 2.65 & 16.34 | -20.53 |
| `Cc1c(-c2ccccc2)ncn1CC(c1cccnc1)N1CCOCC1` (centres unmarked) | 39.85 | 11.52 & -5.916 |
| `CN(Cc1ccsc1)C(=O)c1ccc(S(=O)(=O)NC(C)(C)C)cc1` | 1.429 | -17.82 |
| `CC(C)c1ccc(NC(=O)c2ncc(C(N)=O)cc2Cl)cc1` | 3.901 | 4.566 |
| `O=C(C(O)c1ccccc1Cl)N1CCCN(Cc2cccnc2)CC1` (centres unmarked) | 14.21 | 11.96 |
| `O=c1cc2c(nn1CN1CCN(c3ccccc3)CC1)CCCC2` | -19.43 | -36.2 |
| `CCCOc1ccc(NC(=O)NCCC(=O)N(C)C)cc1Cl` | 24.99 & 13.91 | -2.163 |
| `CSC(C)C(=O)N1CCCN(Cc2nccn2C)CC1` (centres unmarked) | 15.41 | -18.35 |
| `COc1ccc(-c2csc3c2c(N)nc(=O)n3CCCN(C)C)cc1` | 21.03 | 15.94 |
| `Cc1ccc(C(N)c2cccc(S(C)(=O)=O)c2)c(C)c1.Cl` (centres unmarked) | 3.047 | -0.5772 |
| `COCCn1cc(NC(=O)NCC(c2cccc(F)c2)N(C)C)cn1` (centres unmarked) | 15.1 | 7.935 |
| `Cc1nnc(C2Cc3ccccc3CN2Cc2nc(C(C)C)no2)o1` (centres unmarked) | 15.5 | 15.49 |
| `O=C(CCn1ccc2ncccc2c1=O)N1CCCC1` | -6.659 & 4.563 | 2.944 |
| `NC(=O)C1CCN(C(=O)CCSCc2ccccc2)CC1` | -21.83 | -14.5 & -17.67 |
| `CC(C)c1cc(C(=O)N2Cc3ccccc3CC2C(=O)O)nn1C` (centres unmarked) | 2.741 | -7.225 |
| `COc1ccc(CN(C)C(=O)Cc2c(C)nn(C)c2C)cc1F` | 17.3 | 12.43 |
| `Cc1ccc2c(c1)CCCN2C(=O)c1cncc(Br)c1` | 33.05 | -18.79 |
| `COc1ccc(NC(=O)N2CCCCC2c2ncc[nH]2)cc1` (centres unmarked) | 11.94 | 3.886 |
| `Cc1csc(CNC(=O)NCCc2ccc3c(c2)OCCO3)n1` | -18.16 | -5.585 |
| `COCCC(=O)N1CC[C@@H](N2CCOCC2)[C@@H]1Cc1ccccc1.O=C(O)C(F)(F)F` | -0.976 | -17.99 |
| `CN(CCc1ccccn1)C(=O)C(O)c1cc(Cl)cc(Cl)c1` (centres unmarked) | -1.492 | -20.75 |
| `Cc1noc(C)c1CC(=O)N1CCC(Nc2cccnn2)CC1` | -22.94 | 0.198 |
| `CCc1nc(C2CCCN2CC(=O)Nc2sc(C)c(C)c2C)no1` (centres unmarked) | 14.36 | -0.7768 |
| `CNS(=O)(=O)c1ccc(CNC(=O)c2c(C)oc(C)c2C)cc1` | 7.449 | -4.924 |
| `CN(C)Cc1cn2c(n1)CN(C(=O)Cc1ccsc1)CC2.O=C(O)C(F)(F)F` | -18.09 | 1.642 |
| `CCNC(=O)CN1CCCC(c2ccc(C(=O)O)cc2)C1` (centres unmarked) | -32.26 | -29.8 |
| `Cc1noc(C)c1-c1cncc(C2CCCN2Cc2c[nH]cn2)n1` (centres unmarked) | 7.463 | -11.35 |
| `[H][C@@]12CN(Cc3cccnc3OC)C[C@H](C(=O)N3CCCO3)[C@]1([H])CCO2` | 24 & -0.2606 | 8.96 |
| `Cc1cccc(=O)n1CCCNc1nc(N(C)C)nc2c1CCNCC2` | 39.44 | 26.31 |
| `Cc1cc(C)cc(CN2CCN(C(=O)COCC3CCCO3)CC2=O)c1` (centres unmarked) | -2.635 | 8.643 |
| `Cc1cncc(C2CCCN2CCO)n1` (centres unmarked) | -29.58 | -20.17 |
| `O=C(CCc1nccs1)N1CCN(c2ccc(Br)cn2)CC1` | 28.84 | 24.59 |
| `CC(=O)NCc1ccc(C(=O)N2CCCCC2Cn2cccn2)o1` (centres unmarked) | 6.857 | -24.86 |
| `CC(NC(=O)NC1CCN(Cc2ccccn2)CC1)c1nncn1C` (centres unmarked) | -14.46 & 0.4311 | -3.445 |
| `CCOCc1cccc(NCc2c[nH]nc2-c2cccnc2)c1` | 12.15 & -1.105 | -2.279 |
| `O=C(Cc1cccnc1)N1CCCC(n2cncn2)C1` (centres unmarked) | -19.69 & -0.8787 | -1.413 |
| `CCn1cc(Cl)c(C(=O)Nc2ccc3c(c2)C(C)(C)C(=O)N3C)n1` | -1.963 | -11.31 |
| `CS(=O)(=O)NC1CCCN(C(=O)NCc2ccccc2Cl)C1` (centres unmarked) | -7.938 | 10.26 |
| `CNC(=O)COC1COC2(CCN(Cc3cccnc3OC)CC2)C1.O=C(O)C(F)(F)F` (centres unmarked) | 7.324 | -8.802 |
| `CCn1nc(C)c2nc(C(C)C)nc(N3CCN(C)CC3)c21` | 20.58 | -31.23 |
| `[H][C@]12CC[C@]([H])(CN(S(=O)(=O)c3cccnc3)C1)N(Cc1ccccn1)C2` | -2.536 | -0.1714 |
| `CC(c1ccccc1F)N(C(=O)CSCC(N)=O)C1CC1` (centres unmarked) | -0.6013 | -3.648 |
| `COCc1ccccc1NC(=O)[C@@H]1CCCN1C(=O)c1ccco1` | 35.76 & -6.98 | 3.177 |
| `CNC(=O)NC(=O)CCN1CCOC(c2ccc(Br)cc2)C1` (centres unmarked) | 37.02 & 27.08 | 45.49 |
| `[H][C@@]12C[C@H](C(=O)N(C)C)[C@@]([H])(CN(S(=O)(=O)CC)C1)O2` | 5.985 | 0.73 |
| `Cn1cc(CN2CCc3ncn(C)c3C2COCc2cccnc2)cn1` (centres unmarked) | 12.17 & -4.445 | -1.861 |
| `CCCC(C#N)NC(=O)CCCOc1cccc(F)c1` (centres unmarked) | -24.24 & 7.136 | 10.17 |
| `CCn1nc(C)c(NC(=O)CN2CCN(C(C)=O)CC2)c1C` | -6.358 | 24.93 |
| `CNC(=O)c1cccc(NC(=O)CN2CCN(S(C)(=O)=O)CC2)c1` | 18.94 | 10.94 |
| `[H][C@]12CC[C@]([H])(CN(C(=O)N(C)C)C1)N(S(=O)(=O)c1cccnc1)C2` | -6.97 | -5.57 |

The last 3 entries again:

{"structure": "CCn1nc(C)c(NC(=O)CN2CCN(C(C)=O)CC2)c1C", "Mtb glucose medium": -6.358, "Mtb cholesterol medium": 24.93}
{"structure": "CNC(=O)c1cccc(NC(=O)CN2CCN(S(C)(=O)=O)CC2)c1", "Mtb glucose medium": 18.94, "Mtb cholesterol medium": 10.94}
{"structure": "[H][C@]12CC[C@]([H])(CN(C(=O)N(C)C)C1)N(S(=O)(=O)c1cccnc1)C2", "Mtb glucose medium": -6.97, "Mtb cholesterol medium": -5.57}

Measurements from “University of Dundee, Small-Polar-MMV Screening Library” (2021), ChEMBL document CHEMBL3988442.